{"source": "patent US20230091510A1", "about": "(priority 2019, published 2023)", "test": "general procedure: solution-phase peptide synthesis; HATU/DIPEA", "settings": "late stage modification step", "data": [{"substance": "(1R,3S,4S)—N—((S)-1-(((3R,4S,5S)-3-methoxy-1-((S)-2-((1R,2R)-1-methoxy-2-methyl-3-oxo-3-(((S)-2-phenyl-1-(thiazol-2-yl)ethyl)amino)propyl)pyrrolidin-1-yl)-5-methyl-1-oxoheptan-4-yl)(methyl)amino)-3-methyl-1-oxobutan-2-yl)-2-azabicyclo", "values": [{"measurement": "step yield", "value": 83, "unit": "%"}]}]}
